Assay: Redox flow battery cycling and power performance

CC1(C)CC([N+](C)(C)C2CC(C)(C)N([O])C(C)(C)C2)CC(C)(C)N1[O] [i-TEMPOD-1]
capacity decay (2 M (4 M electron concentration), AMVN membrane, after over 100 days of cycling): no capacity decay
capacity retention in RFB cycling (DSVN membrane, high concentration, after 24 days of continuous cycling): remarkable capacity retention
high-frequency resistance as share of the DC resistance (high concentration flow battery, 50% state-of-charge): 97%
